In publication PMC10616141 one finds binding data, which are given here for 1 substance.

Sequences of proteins named here, by UniProt entry; tags and fusion partners are left off.
UniProt Q96D31: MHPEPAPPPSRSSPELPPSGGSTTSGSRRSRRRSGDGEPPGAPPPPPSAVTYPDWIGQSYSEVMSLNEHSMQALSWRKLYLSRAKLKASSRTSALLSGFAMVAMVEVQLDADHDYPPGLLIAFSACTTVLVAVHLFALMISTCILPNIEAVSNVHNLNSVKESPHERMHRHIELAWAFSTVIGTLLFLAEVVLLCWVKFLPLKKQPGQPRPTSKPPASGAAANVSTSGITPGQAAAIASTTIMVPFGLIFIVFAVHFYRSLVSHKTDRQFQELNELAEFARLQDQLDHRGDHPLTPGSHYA

These are yes or no findings as the source states them, for the method shown. In cells and extracts the contact can be indirect. Some results given as binding are weak or reduced against the parent protein; the word gives no strength.

The target in this assay is Orai1-CFP (UniProt Q96D31). Nature of the assay: FRET or BRET; E-FRET between C-terminally tagged Orai1-CFP and Orai1-YFP co-expressed with mCherry-STIM1 (WT or mutants) in HEK-S1S2dKO cells, before and after 2.5 µM ionomycin; values normalised to t0. A general note: Bioluminescence resonance energy transfer reports proximity on the nanometre scale.

For the substance Orai1-YFP (from UniProt Q96D31 1-301), the binding result is on record as “binds”.
